Measured values: PubChem BioAssay AID328 (DTP/NCI, 2004)
The list is a part of this screen's results and no random one: its compounds were picked by chemical class. Not every dose and run of a compound is shown. T/C: endpoint of the treated group in % of that of the vehicle group. Some doses have a count of surviving animals in place of a T/C: the source files T/C as zero there, which appears to mark a toxic dose or a test without result, not a measured value. Some doses without a T/C left all or most animals alive at the check, yet need not have been tolerated: survival well below the control is almost never listed, so the zero probably covers shortened survival too. Counts of survivors are from the toxicity check (mostly the fifth day) where no day follows; animals may have died later. Schedule codes are those of the source, taken here to give the interval after Q, in days (D) or hours (H), and the number of doses after X. For survival time, this PubChem deposit counts one and a half times the control or more as active, and values a quarter to a half above the control carry no call in these data; other NCI protocols may use other cut-offs. Some entries hold several experiments; the values are given in rising order. Some T/C values carry the count of animals alive at the toxicity check (mostly the fifth day); where neither a count nor a note follows, no animal had died by that day.

System: BDF1 mice, P388 leukemia ip, median survival T/C
Assay: NCI In Vivo Anticancer Drug Screen. Data for tumor model P388 Leukemia (intraperitoneal) in B6D2F1 (BDF1) mice
Conditions: T/C endpoint: median survival time, higher T/C = longer survival
How it was run: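 Read-out is survival of treated animals expressed relative to the vehicle group, as a T/C ratio.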

[1] = dose: 100.0 mg/kg/injection, schedule: Q01DX009 (ip), vehicle: saline sonified
[2] = dose: 200.0 mg/kg/injection, schedule: Q01DX009 (ip), vehicle: saline sonified
[3] = dose: 400.0 mg/kg/injection, schedule: Q01DX009 (ip), vehicle: saline sonified
[4] = dose: 50.0 mg/kg/injection, schedule: Q01DX005 (ip), vehicle: saline with Tween-80
[5] = dose: 100.0 mg/kg/injection, schedule: Q01DX005 (ip), vehicle: saline with Tween-80
[6] = dose: 200.0 mg/kg/injection, schedule: Q01DX005 (ip), vehicle: saline with Tween-80
[7] = dose: 100.0 mg/kg/injection, schedule: Q01DX009 (ip), vehicle: saline
[8] = dose: 100.0 mg/kg/injection, schedule: Q04DX003 (ip), vehicle: saline
[9] = dose: 200.0 mg/kg/injection, schedule: Q04DX003 (ip), vehicle: saline

ClC1CSC1
T/C (dose: 8.25 mg/kg/injection, schedule: Q01DX009 (ip), vehicle: saline with Tween-80): 108 % of control
T/C (dose: 12.5 mg/kg/injection, schedule: Q01DX009 (ip), vehicle: saline with Tween-80): 108 % of control
T/C (dose: 18.0 mg/kg/injection, schedule: Q01DX009 (ip), vehicle: Klucel (hydroxypropylcellulose) (HPC)): 116 % of control
T/C (dose: 18.7 mg/kg/injection, schedule: Q01DX009 (ip), vehicle: saline with Tween-80): 108 % of control
T/C (dose: 18.75 mg/kg/injection, schedule: Q01DX009 (ip), vehicle: other): 154 % of control
T/C (dose: 27.0 mg/kg/injection, schedule: Q01DX009 (ip), vehicle: Klucel (hydroxypropylcellulose) (HPC)): 116 % of control
T/C (dose: 37.5 mg/kg/injection, schedule: Q01DX009 (ip), vehicle: other): 195 % of control [5 of 6 alive]
T/C (dose: 40.0 mg/kg/injection, schedule: Q01DX009 (ip), vehicle: Klucel (hydroxypropylcellulose) (HPC)): 116 % of control
T/C (dose: 60.0 mg/kg/injection, schedule: Q01DX009 (ip), vehicle: Klucel (hydroxypropylcellulose) (HPC)): 116 % of control
T/C (dose: 75.0 mg/kg/injection, schedule: Q01DX009 (ip), vehicle: other): 222 % of control [5 of 6 alive]
T/C (dose: 88.0 mg/kg/injection, schedule: Q01DX009 (ip), vehicle: Klucel (hydroxypropylcellulose) (HPC)): 105 % of control [5 of 6 alive]
T/C [1]: 235 % of control
survivor count (dose: 132.0 mg/kg/injection, schedule: Q01DX009 (ip), vehicle: Klucel (hydroxypropylcellulose) (HPC)): 3 of 6
survivor count (dose: 200.0 mg/kg/injection, schedule: Q01DX009 (ip), vehicle: Klucel (hydroxypropylcellulose) (HPC)): 2 of 6
T/C [2]: 300 % of control
survivor count (dose: 300.0 mg/kg/injection, schedule: Q01DX009 (ip), vehicle: Klucel (hydroxypropylcellulose) (HPC)): 1 of 6
T/C [3]: 130 % of control

CCOP(=S)(CC)Oc1cnn(C)c(=O)c1SCC (centres undefined)
survivor count [4]: 0 of 6
survivor count [5]: 0 of 6
survivor count [6]: 0 of 6

O=[N+]([O-])c1cc([N+](=O)[O-])c2ccc3c([N+](=O)[O-])cc([N+](=O)[O-])c4ccc1c2c43
T/C (dose: 100.0 mg/kg/injection, schedule: Q04DX003 (ip), vehicle: Klucel (hydroxypropylcellulose) (HPC)): 105 % of control [5 of 6 alive]
T/C (dose: 200.0 mg/kg/injection, schedule: Q04DX003 (ip), vehicle: Klucel (hydroxypropylcellulose) (HPC)): 105 % of control
T/C (dose: 400.0 mg/kg/injection, schedule: Q04DX003 (ip), vehicle: Klucel (hydroxypropylcellulose) (HPC)): 111 % of control

O=C(OCCNCCCl)c1ccccc1
T/C [7]: 100 % of control
T/C [8]: 104 % of control
T/C [9]: 109 % of control

CC1(C)CN1P(=O)(Nc1ncccn1)N1CC1(C)C (centres undefined)
T/C (dose: 13.3 mg/kg/injection, schedule: Q01DX009 (ip), vehicle: saline): 100 % of control
T/C (dose: 20.0 mg/kg/injection, schedule: Q01DX009 (ip), vehicle: saline): 113 % of control
T/C (dose: 30.0 mg/kg/injection, schedule: Q01DX009 (ip), vehicle: saline): 118 % of control [5 of 6 alive]
T/C (dose: 44.0 mg/kg/injection, schedule: Q01DX009 (ip), vehicle: saline): 136 % of control
T/C (dose: 45.0 mg/kg/injection, schedule: Q01DX009 (ip), vehicle: saline): 145 % of control
T/C (dose: 66.0 mg/kg/injection, schedule: Q01DX009 (ip), vehicle: saline): 154 % of control [5 of 6 alive]
T/C [7]: 190 % of control
T/C (dose: 100.0 mg/kg/injection, schedule: Q04DX003 (ip), vehicle: saline sonified): 172 % of control
T/C (dose: 150.0 mg/kg/injection, schedule: Q01DX009 (ip), vehicle: saline): 213 % of control
T/C (dose: 200.0 mg/kg/injection, schedule: Q04DX003 (ip), vehicle: saline sonified): 136 % of control
T/C (dose: 400.0 mg/kg/injection, schedule: Q04DX003 (ip), vehicle: saline sonified): 200 % of control

Cc1ccc(Sc2ccc([N+](=O)[O-])cc2[N+](=O)[O-])c([N+](=O)[O-])c1
T/C (dose: 66.0 mg/kg/injection, schedule: Q01DX009 (ip), vehicle: saline with Tween-80): 104 % of control
T/C [1]: 133 % of control
T/C (dose: 100.0 mg/kg/injection, schedule: Q01DX009 (ip), vehicle: saline with Tween-80): 118 % of control [5 of 6 alive]
T/C [8]: 90 % of control
T/C (dose: 150.0 mg/kg/injection, schedule: Q01DX009 (ip), vehicle: saline with Tween-80): 154 % of control
T/C [2]: 145 % of control
T/C [9]: 95 % of control
T/C [3]: 125 % of control
T/C (dose: 400.0 mg/kg/injection, schedule: Q04DX003 (ip), vehicle: saline): 100 % of control

NC(Cc1ccc(N(CCCl)CCCl)c(Cl)c1)C(=O)O (centres undefined)
T/C (dose: 0.18 mg/kg/injection, schedule: Q04DX003 (ip), vehicle: saline): 170 % of control
T/C (dose: 0.26 mg/kg/injection, schedule: Q04DX003 (ip), vehicle: saline): 155 % of control
T/C (dose: 0.4 mg/kg/injection, schedule: Q04DX003 (ip), vehicle: saline): 130 and 160 % of control
T/C (dose: 0.6 mg/kg/injection, schedule: Q04DX003 (ip), vehicle: saline): 161 % of control
T/C (dose: 0.9 mg/kg/injection, schedule: Q04DX003 (ip), vehicle: saline): 176 and 200 % of control
T/C (dose: 1.4 mg/kg/injection, schedule: Q04DX003 (ip), vehicle: saline): 230 % of control
T/C (dose: 2.2 mg/kg/injection, schedule: Q04DX003 (ip), vehicle: saline): 230 % of control
T/C (dose: 3.3 mg/kg/injection, schedule: Q04DX003 (ip), vehicle: saline): 230 and 272 % of control
T/C (dose: 5.0 mg/kg/injection, schedule: Q04DX003 (ip), vehicle: saline): 272 % of control
T/C (dose: 7.5 mg/kg/injection, schedule: Q04DX003 (ip), vehicle: saline): 272 % of control [5 of 6 alive]

COP(C)(=O)N1CCCC1 (centres undefined)
T/C [4]: 100 % of control
T/C [5]: 100 % of control
T/C [6]: 115 % of control

O=C(O)/C=C\c1ccccc1N(CCCl)CCCl
T/C (dose: 5.2 mg/kg/injection, schedule: Q01DX009 (ip), vehicle: saline): 109 % of control
T/C (dose: 7.9 mg/kg/injection, schedule: Q01DX009 (ip), vehicle: saline): 176 % of control
T/C (dose: 12.0 mg/kg/injection, schedule: Q01DX009 (ip), vehicle: saline): 190 % of control
T/C (dose: 12.5 mg/kg/injection, schedule: Q01DX009 (ip), vehicle: saline): 127 % of control
T/C (dose: 18.75 mg/kg/injection, schedule: Q01DX009 (ip), vehicle: saline): 145, 225, 230 % of control
T/C (dose: 28.0 mg/kg/injection, schedule: Q01DX009 (ip), vehicle: saline): 160 % of control
T/C (dose: 28.13 mg/kg/injection, schedule: Q01DX009 (ip), vehicle: saline): 177 % of control
T/C (dose: 33.0 mg/kg/injection, schedule: Q04DX003 (ip), vehicle: saline): 175 % of control
T/C (dose: 37.5 mg/kg/injection, schedule: Q01DX009 (ip), vehicle: saline): 125 % of control
T/C (dose: 50.0 mg/kg/injection, schedule: Q04DX003 (ip), vehicle: alcohol): 231 % of control
T/C (dose: 50.0 mg/kg/injection, schedule: Q04DX003 (ip), vehicle: saline): 220 % of control
survivor count (dose: 75.0 mg/kg/injection, schedule: Q01DX009 (ip), vehicle: saline): 3 of 6
T/C (dose: 75.0 mg/kg/injection, schedule: Q04DX003 (ip), vehicle: saline): 245 % of control
survivor count (dose: 100.0 mg/kg/injection, schedule: Q04DX003 (ip), vehicle: alcohol): 6 of 6
survivor count (dose: 200.0 mg/kg/injection, schedule: Q04DX003 (ip), vehicle: alcohol): 1 of 6
